# Results from article PMC7819943, “Rice protein-binding microarrays: a tool to detect cis-acting elements near promoter regions in rice”.
# Protein sequences, listed by entry. Tags and fused reporters are not part of them.
# UniProt Q0JBA9, entry or part of it: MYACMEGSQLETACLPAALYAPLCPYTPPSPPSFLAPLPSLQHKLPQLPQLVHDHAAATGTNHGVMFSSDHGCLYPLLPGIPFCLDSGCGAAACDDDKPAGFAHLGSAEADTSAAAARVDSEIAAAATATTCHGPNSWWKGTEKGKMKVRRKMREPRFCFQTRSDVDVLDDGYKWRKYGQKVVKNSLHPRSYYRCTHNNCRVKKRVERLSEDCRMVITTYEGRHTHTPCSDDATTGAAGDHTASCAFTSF
# The list shows a part of the results.
# Target: OsWRKY34 (Oryza sativa, UniProt Q0JBA9 1-250)
# Assay: protein-binding microarray (RPBM); PBS, 2% BSA, 51.3 ng/ul salmon testes DNA, 50 uM zinc acetate, 200 nM TF, 25 C, 1 h; high values mean tight binding
# Settings: protein: recombinant; tags: N-terminal polyhistidine and DsRed monomer fusion (pET32a); label: CyDye5-dUTP incorporated in the synthesized complementary strand; 3' TTTTT single-stranded linker to array surface; dsDNA, one strand shown
# How it was run: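 Binding signal here means per-feature fluorescence intensity in arbitrary units. The values were read on an Axon 4000B scanner after a custom Agilent array, double-stranded by primer extension with Cy5-dUTP, was incubated with 200 nM protein at 25 °C for 1 h in PBS with 2% BSA, salmon testes DNA and 50 µM zinc acetate, then washed. The proteins were transcription factors with an N-terminal polyhistidine tag and DsRed, expressed in E. coli BL21-CodonPlus and purified on Ni–NTA.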
row,Sequence,binding signal
1,CCTCGAGTGCGACTCCCTCCGCCGCGACGCCGCGCTCCTACGGAGTCACCTAGTGCAG,8360 fluorescence intensity (a.u.)
2,CTCATCCTTGCCTTGCCTAGCTACTCTCATATCTCACCCTCGGAGTCACCTAGTGCAG,10400 fluorescence intensity (a.u.)
3,TTCCTCCGACAATATCGATCCAGCAACCAGGTCAGCTCTTCGGAGTCACCTAGTGCAG,9290 fluorescence intensity (a.u.)
4,GTGGCCGGCGGCGTTCGGGCGTGGGCGGGGAGGCCGGATCCGGAGTCACCTAGTGCAG,13700 fluorescence intensity (a.u.)
5,CCCATTATTTTTTATACCTTTATTTATCTTCTGTGTTTTTCGGAGTCACCTAGTGCAG,13500 fluorescence intensity (a.u.)
6,TTGCTCTAAAAGAGGGAGGGGAGCAGTGAGGACAAACATCCGGAGTCACCTAGTGCAG,8720 fluorescence intensity (a.u.)
7,CGGCGGGCGGGAGGGCGGCGTTGATTTCGTTGGGGTTTGCCGGAGTCACCTAGTGCAG,19100 fluorescence intensity (a.u.)
8,CTTGCGTCGCATCGCCGTTCCCGTCCATCCGGTGGATCTCCGGAGTCACCTAGTGCAG,13900 fluorescence intensity (a.u.)
9,GGTTTTGCAGGGCGAGGAGGGAGGGGAGGAGGGAAGGATGCGGAGTCACCTAGTGCAG,15900 fluorescence intensity (a.u.)
10,ATCCTCCAATTTTTCACATGCCCAATTCCTCCAAACCGAACGGAGTCACCTAGTGCAG,8080 fluorescence intensity (a.u.)
11,AGTTGTGAGTACTTGTTAGGGTTCAAATTATTTGACTTGTCGGAGTCACCTAGTGCAG,8640 fluorescence intensity (a.u.)
12,ATCCATCCGCACGAACTTGTCGTCGTTGCCCTTGCCGCTGCGGAGTCACCTAGTGCAG,8820 fluorescence intensity (a.u.)
13,TTCTGTTTGGTGCCTCGAGGCCCAGGTCTAACTTAGCCTCCGGAGTCACCTAGTGCAG,8370 fluorescence intensity (a.u.)
14,GAGTTGGTAAAGGTGCTCTTTGGGGAGGTGGAGGTCTTAACGGAGTCACCTAGTGCAG,11000 fluorescence intensity (a.u.)
15,GCAGGGTTGTGATGCTAGTTTGGTGAGTGCTCAATTTATGCGGAGTCACCTAGTGCAG,8170 fluorescence intensity (a.u.)
16,TGCTAATGTCTTTATCTTCTTGCAGGTCATGGGGATTTGACGGAGTCACCTAGTGCAG,9880 fluorescence intensity (a.u.)
17,CCAACCATTGCCTTTTTTTACTATATAAAAATTTTGTTTTCGGAGTCACCTAGTGCAG,9810 fluorescence intensity (a.u.)
18,CATCTAGCAATCTGACTGTGTTTCATGTTTTCTTTTTAAGCGGAGTCACCTAGTGCAG,10300 fluorescence intensity (a.u.)
19,ACTCGTGATCGTGCCGCGCCTACTGGATCTCTGCTTCTGACGGAGTCACCTAGTGCAG,11300 fluorescence intensity (a.u.)
20,ACTGGTTCTATGTCTTCTCATAAGCTACTCGCCATCCATTCGGAGTCACCTAGTGCAG,14000 fluorescence intensity (a.u.)
21,CCGCTCCGCCGCTCCGTGCTCCGACCTCCGGCGACCCCGGCGGAGTCACCTAGTGCAG,11300 fluorescence intensity (a.u.)

row,Sequence,binding signal
1,TCCATTCCAACTTCAAAGCGCTCACTCTCCAGCTGCAAGACGGAGTCACCTAGTGCAG,9260 fluorescence intensity (a.u.)
2,GTGGGTGGTGGCGGCGGCGGCGGCGGCGAGGGTTTCTGGGCGGAGTCACCTAGTGCAG,10600 fluorescence intensity (a.u.)
3,ACACTTATTTCTTCATTTTTCTTTTTTTTTTTTTTGCAAACGGAGTCACCTAGTGCAG,12400 fluorescence intensity (a.u.)
4,AGGCGACGACGCGACTTTTCGCACCAGGTGCTTCCTCTCTCGGAGTCACCTAGTGCAG,8050 fluorescence intensity (a.u.)
5,CATAAATTTTTAACTTTTCCATCACATCGTTCCAATTTTGCGGAGTCACCTAGTGCAG,9140 fluorescence intensity (a.u.)
6,TTTCACTCCGGCTTATTAGCATGTTGATCCTTCATCCTTACGGAGTCACCTAGTGCAG,8860 fluorescence intensity (a.u.)
7,GTCCACATTTGTTAGAGAGGTCAATTCCCTTCTTTTTTTTCGGAGTCACCTAGTGCAG,9170 fluorescence intensity (a.u.)
8,CTATTTTCCTGCTCTCTCGCTTTGCCACATCACTATCGATCGGAGTCACCTAGTGCAG,8780 fluorescence intensity (a.u.)
9,ACCATCGGGCCTACCTGCCCGCGCCGGCGCCGCCGATCAACGGAGTCACCTAGTGCAG,9160 fluorescence intensity (a.u.)
10,TGATTTGCCACTGACTTTATCACGTTTTATAATGTGCCATCGGAGTCACCTAGTGCAG,8250 fluorescence intensity (a.u.)
11,TTCTTTGCGGTCTCTCTGATTACTTGCAGTGGTGCTTGTTCGGAGTCACCTAGTGCAG,9350 fluorescence intensity (a.u.)
12,TACAGTTTCTTCGTTTTGAGTTAGAGCGAGACTCCGGCGCCGGAGTCACCTAGTGCAG,8070 fluorescence intensity (a.u.)
13,GGAGCTAGTCCAACCTACCGCAGTCACACCACCCCGCTATCGGAGTCACCTAGTGCAG,9270 fluorescence intensity (a.u.)
14,ATAAGTTGGGCTGGTTTTCTGATTGAGGGATGTGATTCGACGGAGTCACCTAGTGCAG,8180 fluorescence intensity (a.u.)
15,GTTTATAATTATAGCTTGTCTTATGCATACTCACTGTATGCGGAGTCACCTAGTGCAG,8720 fluorescence intensity (a.u.)
16,ACCGCTTGTTTTTTAGAGACACATAAGTTTTTTCCAGCTACGGAGTCACCTAGTGCAG,8410 fluorescence intensity (a.u.)
17,GTTATCTTCTGTGAGGTTTTTCTCTTTATCTGTTTTCTCCCGGAGTCACCTAGTGCAG,10500 fluorescence intensity (a.u.)
18,CTGTCCCCACCTGTCACATGCCTCACGCAGCAGAGCTCAACGGAGTCACCTAGTGCAG,9310 fluorescence intensity (a.u.)
19,AGTTTGCATTTTGCCCCTTTTCTATTGCAGTATTGCATATCGGAGTCACCTAGTGCAG,8070 fluorescence intensity (a.u.)
20,TCGTTTTGTTTACTTTCGTGTTTATTAGGTCTGTCCACATCGGAGTCACCTAGTGCAG,11400 fluorescence intensity (a.u.)
21,GATCAGCCATGATATGGAGCAAGTCGAGAGCTTGTTGACTCGGAGTCACCTAGTGCAG,8120 fluorescence intensity (a.u.)

row,Sequence,binding signal
1,ATTCCCCATCCAACTGAGCTGCATCGCCGCCGTCGCCGCCCGGAGTCACCTAGTGCAG,11200 fluorescence intensity (a.u.)
2,TCCTGTATATATGTCCTTTTTAATGTGTGTGTATAATTAACGGAGTCACCTAGTGCAG,8940 fluorescence intensity (a.u.)
3,AAGAAGGGGAAGGGAGTTTCTATGGTTCTTGCTGGTGCCGCGGAGTCACCTAGTGCAG,8750 fluorescence intensity (a.u.)
4,GCCCGAACCTGTATACATCGCCCGTGTCTTGTGCTTTTTCCGGAGTCACCTAGTGCAG,11700 fluorescence intensity (a.u.)
5,TTTAGTTGGTCTATCTTGAGCATTTCTTCTGAGTATTCAACGGAGTCACCTAGTGCAG,8700 fluorescence intensity (a.u.)
6,CGCCACCACTCGCCTCCGTCTCTAACGCCTCCGCTGCCGTCGGAGTCACCTAGTGCAG,9440 fluorescence intensity (a.u.)
7,ACCGGGTGTTTTTTTATCGGATTTTCTGTCTAACACTGTACGGAGTCACCTAGTGCAG,10000 fluorescence intensity (a.u.)
8,TAGGTGTAGATGGATAAAAGAGTTCGGGGTGGTTTAAAGTCGGAGTCACCTAGTGCAG,9010 fluorescence intensity (a.u.)
9,TACTCCTACCCACCCACTCGTACGGCCGAACGTCTGGCACCGGAGTCACCTAGTGCAG,8550 fluorescence intensity (a.u.)
10,CCACAAATATCCCCTAGTGCCTTTTGTTTGGCCGTGGTGTCGGAGTCACCTAGTGCAG,8860 fluorescence intensity (a.u.)
11,GGGTTCGTCTGCGGTTCGCTGCCCGTCTTCGTCCAGTTCCCGGAGTCACCTAGTGCAG,10800 fluorescence intensity (a.u.)
12,TCTAGGCTCGTTATGTTTTGTATGTACTTGTATAAAAGACCGGAGTCACCTAGTGCAG,8070 fluorescence intensity (a.u.)
13,AATCAGCACGTCCTCAATCTATCGTCCACTCTCACAGTCTCGGAGTCACCTAGTGCAG,8120 fluorescence intensity (a.u.)
14,TTTTTATTCCACCGCTTTGTCGTTCTCGCAATCTCGCTGTCGGAGTCACCTAGTGCAG,17700 fluorescence intensity (a.u.)
15,GGCTGCACAGAATTTCGGTTTGAACGTTTTTTTTGGGGTTCGGAGTCACCTAGTGCAG,9770 fluorescence intensity (a.u.)
16,GTTCTTGACCTCAAAAATTGTCGACAGCTCACTATCTACTCGGAGTCACCTAGTGCAG,8520 fluorescence intensity (a.u.)
17,CTTCTGTCACGTACGCCCGTCCCTCATATGGCCAATCGCGCGGAGTCACCTAGTGCAG,13400 fluorescence intensity (a.u.)
18,CTCTTCTTTTCTGCCTCCTCCATCATCTTCAACAATTGATCGGAGTCACCTAGTGCAG,8930 fluorescence intensity (a.u.)
19,GTGTCTCAGTCAACATCAATTGATTGATCAATATAACAACCGGAGTCACCTAGTGCAG,8230 fluorescence intensity (a.u.)
20,TCGTCACCCCTAACCCTAGGCTGAGTCATCCTCTTATCCGCGGAGTCACCTAGTGCAG,9020 fluorescence intensity (a.u.)
21,CCCACCCGCGATCCCTGATCTCCTCTCCGCTCCTCCGCGCCGGAGTCACCTAGTGCAG,9820 fluorescence intensity (a.u.)

# Looked up one by one from the entries so far, 6 records:
row,Sequence,binding signal
19,GTGTCTCAGTCAACATCAATTGATTGATCAATATAACAACCGGAGTCACCTAGTGCAG,8230 fluorescence intensity (a.u.)
5,TTTAGTTGGTCTATCTTGAGCATTTCTTCTGAGTATTCAACGGAGTCACCTAGTGCAG,8700 fluorescence intensity (a.u.)
13,AATCAGCACGTCCTCAATCTATCGTCCACTCTCACAGTCTCGGAGTCACCTAGTGCAG,8120 fluorescence intensity (a.u.)
18,CTCTTCTTTTCTGCCTCCTCCATCATCTTCAACAATTGATCGGAGTCACCTAGTGCAG,8930 fluorescence intensity (a.u.)
14,TTTTTATTCCACCGCTTTGTCGTTCTCGCAATCTCGCTGTCGGAGTCACCTAGTGCAG,17700 fluorescence intensity (a.u.)
11,GGGTTCGTCTGCGGTTCGCTGCCCGTCTTCGTCCAGTTCCCGGAGTCACCTAGTGCAG,10800 fluorescence intensity (a.u.)

# Additional records.

row,Sequence,binding signal
1,CCTATCCAACTTCTTCACCGCTAGCCGCCGCCCAACCGGCCGGAGTCACCTAGTGCAG,8740 fluorescence intensity (a.u.)
2,GAGGAGGAAGGGAGGGGTTGTCAGCAGCTAGGGTTTTGACCGGAGTCACCTAGTGCAG,10300 fluorescence intensity (a.u.)
3,TGAGGCCATCTTTTGATATCCCTTATCCCTAAAATATTTCCGGAGTCACCTAGTGCAG,8470 fluorescence intensity (a.u.)
4,GCTCCAGCGCTGTCAAACTTTTTCTCCACCGCTCCAGCCGCGGAGTCACCTAGTGCAG,9100 fluorescence intensity (a.u.)
5,ATGTTTGACTTTTTTTTAAAAAATTTATATTTTTTTAAATCGGAGTCACCTAGTGCAG,8390 fluorescence intensity (a.u.)
6,CGTGGCCACTGCTACCTACCTTGCATCTCTTCTGCCTTTTCGGAGTCACCTAGTGCAG,9090 fluorescence intensity (a.u.)
7,GGTTCCATGCCTCGCCGTTTATCTATCTAATTTACTAGCACGGAGTCACCTAGTGCAG,9110 fluorescence intensity (a.u.)
8,CTTCAAGAACCGGGTTTATATTCATATACTTTTCTACCAGCGGAGTCACCTAGTGCAG,8210 fluorescence intensity (a.u.)
9,TTGGTGTTGGTGTTGTTGTTGATGCTTCTTTGATGAGCGCCGGAGTCACCTAGTGCAG,12600 fluorescence intensity (a.u.)
10,ATAGTCAGGTGAAATAAGGGGCTATTTTTTCTCAGAATCTCGGAGTCACCTAGTGCAG,8320 fluorescence intensity (a.u.)
11,TCCAAGTGCTTTCGAGCTCCGATCGCTTTTCCCCTTCATTCGGAGTCACCTAGTGCAG,8920 fluorescence intensity (a.u.)
12,GCCCAATCTGATCTACTTCATTCTCTAGTGGCCTAACAATCGGAGTCACCTAGTGCAG,11400 fluorescence intensity (a.u.)
13,GCTTCCACGTCTCCCTCCTTATCTGTGACCCACTCCGTCGCGGAGTCACCTAGTGCAG,8640 fluorescence intensity (a.u.)
14,TCTATTCGTCTCCCTTTTCTCTTTTCCGTTTTGGTTTCTACGGAGTCACCTAGTGCAG,9420 fluorescence intensity (a.u.)
15,AATAGCATTCACCAGTTGCAACGCACGGGCATTTATATATCGGAGTCACCTAGTGCAG,8140 fluorescence intensity (a.u.)
16,GCCCAATACTAGTCCAACCAAATTGCCCACACTCCACGCACGGAGTCACCTAGTGCAG,8260 fluorescence intensity (a.u.)
17,CTTGGTGGCTCAATTATAATCTCTTTTCCCACTGTGTTGCCGGAGTCACCTAGTGCAG,10000 fluorescence intensity (a.u.)
18,CTCCGTTTCACAATGTAAGTCATTTTAGTATTTTCCACATCGGAGTCACCTAGTGCAG,8500 fluorescence intensity (a.u.)
19,ACTGCCGAGTGAAAACCTAGTCTTAGCTCTCTTTGAGACCCGGAGTCACCTAGTGCAG,8170 fluorescence intensity (a.u.)
20,CTCAGTCTCAATCTGTGCACTACTGTTTTTTTTTCAGGTTCGGAGTCACCTAGTGCAG,10300 fluorescence intensity (a.u.)
21,CTCCGCCGCGTGCTCTCCGCCTACGGCCTCTTGTATCCCGCGGAGTCACCTAGTGCAG,8450 fluorescence intensity (a.u.)
